Assay [1] has as its target T1, glutathione-S-transferase (GST)-tagged TOPK protein (UniProt Q96KB5).
T1 sequence: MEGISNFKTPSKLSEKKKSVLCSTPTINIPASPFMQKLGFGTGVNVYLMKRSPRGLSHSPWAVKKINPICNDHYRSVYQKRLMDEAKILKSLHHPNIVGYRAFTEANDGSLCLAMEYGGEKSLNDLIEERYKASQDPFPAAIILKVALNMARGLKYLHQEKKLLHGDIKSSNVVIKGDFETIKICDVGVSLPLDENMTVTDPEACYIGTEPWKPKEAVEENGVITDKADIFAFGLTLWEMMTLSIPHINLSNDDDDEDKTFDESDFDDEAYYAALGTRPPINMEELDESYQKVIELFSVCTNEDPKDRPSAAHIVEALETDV
In words: affinity purification with mass spectrometry; TOPK captured by an anti-GST antibody immobilised on a CM5 chip (Biacore T200); KYSE510 cell lysate flowed over at 10 μL/min for 5 min in 1X kinase buffer, pH 7.2; captured proteins recovered and identified by LC-ESI-MS/MS; proteins with a score higher than 25 chosen; control without TOPK; only the target purified.

Assay [2] has as its target T2, recombinant TOPK (Signalchem, T14-10G-10) (UniProt Q96KB5).
T2 sequence: T1 sequence
The assay is described as above.

Results are given in words; binding and its absence hold for the method and conditions named. In cells and extracts the contact can be indirect. A yes stands for co-enrichment or nearness to the bait. Other partners may have been found. For some of these results: Tags and fused reporters may be left off the sequences shown.

As for EEF1A (human (endogenous in KYSE510)), the binding result in assay [1] and in assay [2] was “binds” each time.

B1: γ-catenin (protein, UniProt P14923 1-745)
chain: MEVMNLMEQPIKVTEWQQTYTYDSGIHSGANTCVPSVSSKGIMEEDEACGRQYTLKKTTTYTQGVPPSQGDLEYQMSTTARAKRVREAMCPGVSGEDSSLLLATQVEGQATNLQRLAEPSQLLKSAIVHLINYQDDAELATRALPELTKLLNDEDPVVVTKAAMIVNQLSKKEASRRALMGSPQLVAAVVRTMQNTSDLDTARCTTSILHNLSHHREGLLAIFKSGGIPALVRMLSSPVESVLFYAITTLHNLLLYQEGAKMAVRLADGLQKMVPLLNKNNPKFLAITTDCLQLLAYGNQESKLIILANGGPQALVQIMRNYSYEKLLWTTSRVLKVLSVCPSNKPAIVEAGGMQALGKHLTSNSPRLVQNCLWTLRNLSDVATKQEGLESVLKILVNQLSVDDVNVLTCATGTLSNLTCNNSKNKTLVTQNSGVEALIHAILRAGDKDDITEPAVCALRHLTSRHPEAEMAQNSVRLNYGIPAIVKLLNQPNQWPLVKATIGLIRNLALCPANHAPLQEAAVIPRLVQLLVKAHQDAQRHVAAGTQQPYTDGVRMEEIVEGCTGALHILARDPMNRMEIFRLNTIPLFVQLLYSSVENIQRVAAGVLCELAQDKEAADAIDAEGASAPLMELLHSRNEGTATYAAAVLFRISEDKNPDYRKRVSVELTNSLFKHDPAAWEAAQSMIPINEPYGDDMDATYRPMYSSDVPLDPLEMHMDMDGDYPIDTYSDGLRPPYPTADHMLA
B1: in assay [2], the binding result was “binds”.

B2: plakophilin-1 (protein, UniProt Q13835 1-747)
chain: MNHSPLKTALAYECFQDQDNSTLALPSDQKMKTGTSGRQRVQEQVMMTVKRQKSKSSQSSTLSHSNRGSMYDGLADNYNYGTTSRSSYYSKFQAGNGSWGYPIYNGTLKREPDNRRFSSYSQMENWSRHYPRGSCNTTGAGSDICFMQKIKASRSEPDLYCDPRGTLRKGTLGSKGQKTTQNRYSFYSTCSGQKAIKKCPVRPPSCASKQDPVYIPPISCNKDLSFGHSRASSKICSEDIECSGLTIPKAVQYLSSQDEKYQAIGAYYIQHTCFQDESAKQQVYQLGGICKLVDLLRSPNQNVQQAAAGALRNLVFRSTTNKLETRRQNGIREAVSLLRRTGNAEIQKQLTGLLWNLSSTDELKEELIADALPVLADRVIIPFSGWCDGNSNMSREVVDPEVFFNATGCLRKRLGMRELLALVPQRATSSRVNLSSADAGRQTMRNYSGLIDSLMAYVQNCVAASRCDDKSVENCMCVLHNLSYRLDAEVPTRYRQLEYNARNAYTEKSSTGCFSNKSDKMMNNNYDCPLPEEETNPKGSGWLYHSDAIRTYLNLMGKSKKDATLEACAGALQNLTASKGLMSSGMSQLIGLKEKGLPQIARLLQSGNSDVVRSGASLLSNMSRHPLLHRVMGNQVFPEVTRLLTSHTGNTSNSEDILSSACYTVRNLMASQPQLAKQYFSSSMLNNIINLCRSSASPKAAEAARLLLSDMWSSKELQGVLRQQGFDRNMLGTLAGANSLRNFTSRF
Consider B2, for which the binding result in assay [1] and in assay [2] was “binds” throughout.

B3: dermcidin (protein, UniProt P81605 20-110)
chain: YDPEAASAPGSGNPCHEASAAQKENAGEDPGLARQAPKPRKQRSSLLEKGLDGAKKAVGGLGKLGKDAVEDLESVGKGAVHDVKDVLDSVL
As for B3, the binding entry in assay [1] and in assay [2] was “binds” throughout.
